Patent publication US20230265185A1 (NATIONAL RESEARCH COUNCIL OF CANADA, published 2023)
Results are given in words; binding and its absence hold for the method and conditions named.

The chains behind the UniProt entries cited, without tags or fusion partners. Residues count along the entry.
hCD22 fragment Bin 6, IVR6 (aa476-575), displayed on yeast cells (P20273, residues 495-594): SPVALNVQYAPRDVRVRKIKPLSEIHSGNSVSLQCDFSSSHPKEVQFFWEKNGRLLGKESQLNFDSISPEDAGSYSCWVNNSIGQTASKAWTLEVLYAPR
hCD22 fragment Bin 7, IVR7 (aa561-668), displayed on yeast cells (P20273, residues 580-687): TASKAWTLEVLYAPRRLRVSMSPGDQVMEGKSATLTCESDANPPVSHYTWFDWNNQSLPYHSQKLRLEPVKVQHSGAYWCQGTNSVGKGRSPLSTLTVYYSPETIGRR

Assays:
[1] = target: hCD22 fragment Bin 7, IVR7 (aa561-668), displayed on yeast cells (human) (UniProt P20273); assay: yeast display cell ELISA
[2] = target: hCD22 fragment Bin 6, IVR6 (aa476-575), displayed on yeast cells (human) (UniProt P20273); assay: yeast display cell ELISA

Binder | binding [1] | binding [2]
hCD221ug-80 (VHH, single biotin at the VHH C-terminal (biotinylation signal sequence), llama VHH, expressed in E. coli TG1, IMAC purified, monomeric SEC fraction; also called VHH # 1; 2-hCD22 1ug-80) VHH: QVQLVESGGGLVQPGGSLRLSCTFSGFTLDYYVMVWFRQAPGKEREAVSCITSDGVTYYADSVKGRFTISRDNAKNTVYLQMNRVKPEDTAVYYCAVDKPFYDGGIQYTCPVDFDSWGQGAQVTVSS | no binding (tested: OD450 not above 0.25; sdAb 250 nM) | –
hCD22pas-24 (VHH, single biotin at the VHH C-terminal (biotinylation signal sequence), llama VHH, expressed in E. coli TG1, IMAC purified, monomeric SEC fraction; also called VHH # 26; 8-hCD22 pas-24) VHH: QVQLVESGGGLVQAGGSLRLSCSASGITSSINSMGWHRQAPGKQRELVASIGRGGSGSTKYADSGKGRFLISRDNNKNILFLEMNSLKPEDTADYYCLEVTTDLSSYWGRGTQVTVSS | – | no binding (tested: OD450 not above 0.25; sdAb 250 nM)
hCD221ug-13 (VHH, single biotin at the VHH C-terminal (biotinylation signal sequence), llama VHH, expressed in E. coli TG1, IMAC purified, monomeric SEC fraction; also called VHH # 21; 1-hCD22 1ug-13) VHH: QVQLVESGGGLVQAGDSLRLSCAGSGGSFSSVTMAWFRQAPGKDREFVAAITWSSPSTYYADSVKGRFTISRDNAKNTVYLQMNSLKPEDTAVYYCAGGRTGRGTSADTDEYNYWGQGTQVTVSS | no binding (tested: OD450 not above 0.25; sdAb 250 nM) | –
